According to paper PMC5654082 (Malaria Journal, 2017):
Counter-ions that a name gives are not always drawn. Like-named read-outs stand apart in the source and are kept apart here.

System: OCT2
Conditions: fraction unbound * Cmax/IC50, cut-off value 0.1

Row | Structure (SMILES) | DDI index (OCT2) | DDI index (OCT2) (listed as PG) | DDI index (OCT2) (listed as AQ)
1 | [H]/N=C(\N/C(=N/[H])Nc1ccc(Cl)cc1)NC(C)C [Proguanil, proguanil hydrochloride] | 0.02 | below 0.1 | –
2 | CCc1nc(N)nc(N)c1-c1ccc(Cl)cc1 [Pyrimethamine, pyrimethamine] | 0.04 | – | –
3 | CCN(CC)Cc1cc(Nc2ccnc3cc(Cl)ccc23)ccc1O [Amodiaquine, amodiaquine dihydrochloride dehydrate] | 0.0001 | – | below 0.1
